Legend:
[1] = Photoinitiated solution copolymerization of BMOCHM-TOSU/EPON 825 (FTIR, gel point); conditions: equimolar mixture (20 wt %) in methylene chloride, 25° C., EPON 916 cm^−1, BMOCHM-TOSU 905 cm^−1
[2] = Photoinitiated solution homopolymerization of BMOCHM-TOSU (FTIR, gel point); assay type: physicochemical; conditions: 20 wt % in methylene chloride, 26° C., 923 mW/cm^2
Experimental: The effect of irradiation time on the photoinitated homopolymerization of BMOCHM-TOSU monomer (20 wt % in methylene chloride) was evaluated by gel point determination and by FTIR spectroscopy. Selected IR absorption bands in the reaction mixture characteristic of hydroxyl, carbonyl and oxirane groups were monitored as a function of irradiation time. […] These observations indicate the possibility of homopolymer formation. The mixture gelled 1.5 min post irradiation.

CC1CC2OC2CC1CC1COC2(OC1)OCC(CC1CC3OC3CC1C)CO2 (stereo not shown) [BMOCHM, 3,9-bis[(4-methyl-7-oxabicyclo[4.1.0]hept-3-yl)methyl]-1,5,7,11-tetraoxaspiro[5,5]undecane]
Oxirane conversion ([1]; irradiation time 1 min): 5.5% | Oxirane conversion ([1]; irradiation time 2 min): 10.6% | Oxirane conversion ([1]; irradiation time 3 min): 14.0% | Oxirane conversion ([1]; irradiation time 4 min): 14.9% | Oxirane conversion ([1]; irradiation time 5 min): 21.8% | Oxirane conversion ([1]; irradiation time 6 min): 26.7% | Oxirane conversion ([1]; irradiation time 7 min): 26.9% | IR absorbance region Rx/R0 ratio Carbonyl 1754–1744 cm^−1 ([2]; irradiation time 0.5 min): 1.06 | IR absorbance region Rx/R0 ratio Hydroxyl 352–3418 cm^−1 ([2]; irradiation time 0.5 min): 1.08 | IR absorbance region Rx/R0 ratio Oxirane 905 cm^−1 ([2]; irradiation time 0.5 min): 0.96 | IR absorbance region Rx/R0 ratio Carbonyl 1754–1744 cm^−1 ([2]; irradiation time 1 min): 1.14 | IR absorbance region Rx/R0 ratio Hydroxyl 352–3418 cm^−1 ([2]; irradiation time 1 min): 1.24 | IR absorbance region Rx/R0 ratio Oxirane 905 cm^−1 ([2]; irradiation time 1 min): 0.95 | IR absorbance region Rx/R0 ratio Carbonyl 1754–1744 cm^−1 ([2]; irradiation time 2 min): 1.45 | IR absorbance region Rx/R0 ratio Hydroxyl 352–3418 cm^−1 ([2]; irradiation time 2 min): 1.67 | IR absorbance region Rx/R0 ratio Oxirane 905 cm^−1 ([2]; irradiation time 2 min): 0.84 | IR absorbance region Rx/R0 ratio Carbonyl 1754–1744 cm^−1 ([2]; irradiation time 4 min): 3.22 | IR absorbance region Rx/R0 ratio Hydroxyl 352–3418 cm^−1 ([2]; irradiation time 4 min): 4.12 | IR absorbance region Rx/R0 ratio Oxirane 905 cm^−1 ([2]; irradiation time 4 min): 0.68 | IR absorbance region Rx/R0 ratio Carbonyl 1754–1744 cm^−1 ([2]; irradiation time 6 min): 3.23 | IR absorbance region Rx/R0 ratio Hydroxyl 352–3418 cm^−1 ([2]; irradiation time 6 min): 5.91 | IR absorbance region Rx/R0 ratio Oxirane 905 cm^−1 ([2]; irradiation time 6 min): 0.47 | IR absorbance region Rx/R0 ratio Carbonyl 1754–1744 cm^−1 ([2]; irradiation time 8 min): 2.64 | IR absorbance region Rx/R0 ratio Hydroxyl 352–3418 cm^−1 ([2]; irradiation time 8 min): 5.25 | IR absorbance region Rx/R0 ratio Oxirane 905 cm^−1 ([2]; irradiation time 8 min): 0.35

— patent US7232852B2, “Photopolymerizable compositions that include alicyclic/aromatic dioxiranes and novel dioxiranyl tetraoxaspiro [5.5] undecanes” (Curators of the University of Missouri, priority 2002, dated 2007)
